Test system: UBE3A-deficient iOPCs and iOLs
Test: Oligodendrocyte differentiation of UBE3A-deficient iOPCs into iOLs (immunoblotting of Ki67, MAG, CNPase)
Assay type: cell-based, human
Conditions: UBE3A-deficient cells; clemastine (2.5 μM); 24 hours
Description: FIGS. 25A-25I depict the role of UBE3A via ESR-β signaling on OPC proliferation and oligodendrocyte differentiation. FIG. 25A: qPCR to evaluate the differentiation and maturation for myelination of iOPCs after persistent UBE3A knockdown, by measuring mRNA transcripts of UBE3A and myelination markers MBP and PLP1 in iOPCs treated with siNC or siUBE3A and differentiated in vitro. MBP and PLP1 mRNA expression decreased in iOLs treated with siUBE3A. n=3 independent experiments. FIG. 25B: In vitro myelination assays analyzed the effect of persistent UBE3A knockdown on iOPCs differentiation and maturation in nano-fiber-based cultures, with immunofluorescent staining of MBP (magenta) and DAPI (blue) and imaging of nano-fibers (grey). Quantification by the area (left graph) and density (right graph) of MBP fluorescent signals (normalized to siNC=1.0). MBP area and intensity decreased in cells treated with siUBE3A. n=3 experiments. Scale bar: 25 μm. […] Protein levels of ESR-β in UBE3A-deficient iOPCs and subsequently differentiated iOLs were quantified, normalized against the loading control GAPDH, and expressed relative to the iOPC+siNC control condition (set at 1.0). […] FIG. 25D: The effects of AC-186 (10 M) and clemastine (2.5 μM) on OPC proliferation (24 hours) and oligodendrocyte differentiation (3 days) were assessed via immunoblotting. […]

**Q.** `CN1CCC[C@@H]1CCO[C@](C)(c1ccccc1)c1ccc(Cl)cc1` [clemastine, Clemastine, reference compound] was tested. Which “proliferation (Ki67), FIG. 25D” value did it give?
**A.** The value was “without affecting proliferation”.
